Reference: PubChem BioAssay AID1508597 (Cure First, 2020)
Shown is one part, drawn at random, of about 2,100 reagents tested. 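Calls flag viability under 80% in either arm, not effects specific to rucaparib; the reference for percent is not stated.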 Not given: the 100% reference.

Assay: 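Genes whose silencing sensitises or protects ovarian cancer cells against rucaparib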 (primary screen)
Cells: human ovarian carcinoma lines grown from tumours: OCI-P5x (papillary serous) and OCI-C5x (clear cell)
Reagent: siRNA pool against human genes, 1.25 pmol siRNA per well
Timing: 72 h or 96 h, depending on the cell culture
Conditions: rucaparib 20 µM (about IC30) or vehicle, present until read-out
Measured: 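ATP luminescence measured at 72 or 96 h according to the culture, then normalised and expressed as percent viability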
Reading the numbers: viability, normalised: higher = more viable cells remaining
Hit rule: 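Active when normalised viability falls below 80 percent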
Calls: active = viability under 80%; inactive = viability 80% or more

no.	gene	PubChem SID	rucaparib or vehicle	cell line	technical replicate	viability, normalised (%)	outcome
1	ATOH1	SID405528001	Rucaparib	OCI-C5x (clear cell)	1	37	active
2	ATOH1	SID405528001	Rucaparib	OCI-C5x (clear cell)	2	48.6	active
3	ATOH1	SID405528001	Rucaparib	OCI-C5x (clear cell)	3	55.5	active
4	ATOH1	SID405528001	Rucaparib	OCI-P5x (serous)	1	81.6	inactive
5	ATOH1	SID405528001	Rucaparib	OCI-P5x (serous)	2	93.1	inactive
6	ATOH1	SID405528001	Rucaparib	OCI-P5x (serous)	3	87.8	inactive
7	ATOH1	SID405528001	Vehicle	OCI-C5x (clear cell)	1	44.6	active
8	ATOH1	SID405528001	Vehicle	OCI-C5x (clear cell)	2	65	active
9	ATOH1	SID405528001	Vehicle	OCI-C5x (clear cell)	3	43.2	active
10	ATOH1	SID405528001	Vehicle	OCI-P5x (serous)	1	70.2	active
11	ATOH1	SID405528001	Vehicle	OCI-P5x (serous)	2	72.1	active
12	ATOH1	SID405528001	Vehicle	OCI-P5x (serous)	3	84.3	inactive
13	TREX2	SID405528419	Rucaparib	OCI-C5x (clear cell)	1	42.5	active
14	TREX2	SID405528419	Rucaparib	OCI-C5x (clear cell)	2	70.3	active
15	TREX2	SID405528419	Rucaparib	OCI-C5x (clear cell)	3	62.4	active
16	TREX2	SID405528419	Rucaparib	OCI-P5x (serous)	1	88	inactive
17	TREX2	SID405528419	Rucaparib	OCI-P5x (serous)	2	88.9	inactive
18	TREX2	SID405528419	Rucaparib	OCI-P5x (serous)	3	79	active
19	TREX2	SID405528419	Vehicle	OCI-C5x (clear cell)	1	59.3	active
20	TREX2	SID405528419	Vehicle	OCI-C5x (clear cell)	2	34.9	active
21	TREX2	SID405528419	Vehicle	OCI-C5x (clear cell)	3	54.9	active
22	TREX2	SID405528419	Vehicle	OCI-P5x (serous)	1	75.7	active
23	TREX2	SID405528419	Vehicle	OCI-P5x (serous)	2	66.9	active
24	TREX2	SID405528419	Vehicle	OCI-P5x (serous)	3	55.5	active
25	ARAF	SID405527441	Rucaparib	OCI-C5x (clear cell)	1	59.1	active
26	ARAF	SID405527441	Rucaparib	OCI-C5x (clear cell)	2	55.1	active
27	ARAF	SID405527441	Rucaparib	OCI-C5x (clear cell)	3	44.2	active
28	ARAF	SID405527441	Rucaparib	OCI-P5x (serous)	1	104	inactive
29	ARAF	SID405527441	Rucaparib	OCI-P5x (serous)	2	93.2	inactive
30	ARAF	SID405527441	Rucaparib	OCI-P5x (serous)	3	92.8	inactive
31	ARAF	SID405527441	Vehicle	OCI-C5x (clear cell)	1	55.5	active
32	ARAF	SID405527441	Vehicle	OCI-C5x (clear cell)	2	62.3	active
33	ARAF	SID405527441	Vehicle	OCI-C5x (clear cell)	3	56.2	active
34	ARAF	SID405527441	Vehicle	OCI-P5x (serous)	1	94.8	inactive
35	ARAF	SID405527441	Vehicle	OCI-P5x (serous)	2	64.9	active
36	ARAF	SID405527441	Vehicle	OCI-P5x (serous)	3	83.5	inactive

The list goes on, starting with the last 4 of the part before.
no.	gene	PubChem SID	rucaparib or vehicle	cell line	technical replicate	viability, normalised (%)	outcome
33	ARAF	SID405527441	Vehicle	OCI-C5x (clear cell)	3	56.2	active
34	ARAF	SID405527441	Vehicle	OCI-P5x (serous)	1	94.8	inactive
35	ARAF	SID405527441	Vehicle	OCI-P5x (serous)	2	64.9	active
36	ARAF	SID405527441	Vehicle	OCI-P5x (serous)	3	83.5	inactive
37	TEC	SID405527410	Rucaparib	OCI-C5x (clear cell)	1	52.9	active
38	TEC	SID405527410	Rucaparib	OCI-C5x (clear cell)	2	67.9	active
39	TEC	SID405527410	Rucaparib	OCI-C5x (clear cell)	3	54.1	active
40	TEC	SID405527410	Rucaparib	OCI-P5x (serous)	1	106	inactive
41	TEC	SID405527410	Rucaparib	OCI-P5x (serous)	2	106	inactive
42	TEC	SID405527410	Rucaparib	OCI-P5x (serous)	3	105	inactive
43	TEC	SID405527410	Vehicle	OCI-C5x (clear cell)	1	62	active
44	TEC	SID405527410	Vehicle	OCI-C5x (clear cell)	2	54.1	active
45	TEC	SID405527410	Vehicle	OCI-C5x (clear cell)	3	56.3	active
46	TEC	SID405527410	Vehicle	OCI-P5x (serous)	1	101	inactive
47	TEC	SID405527410	Vehicle	OCI-P5x (serous)	2	80.5	inactive
48	TEC	SID405527410	Vehicle	OCI-P5x (serous)	3	68.4	active
49	CHD7	SID405528106	Rucaparib	OCI-C5x (clear cell)	1	60.6	active
50	CHD7	SID405528106	Rucaparib	OCI-C5x (clear cell)	2	41.8	active
51	CHD7	SID405528106	Rucaparib	OCI-C5x (clear cell)	3	33.3	active
52	CHD7	SID405528106	Rucaparib	OCI-P5x (serous)	1	64.5	active
53	CHD7	SID405528106	Rucaparib	OCI-P5x (serous)	2	67.5	active
54	CHD7	SID405528106	Rucaparib	OCI-P5x (serous)	3	69.7	active
55	CHD7	SID405528106	Vehicle	OCI-C5x (clear cell)	1	39.1	active
56	CHD7	SID405528106	Vehicle	OCI-C5x (clear cell)	2	40.1	active
57	CHD7	SID405528106	Vehicle	OCI-C5x (clear cell)	3	50.9	active
58	CHD7	SID405528106	Vehicle	OCI-P5x (serous)	1	63.5	active
59	CHD7	SID405528106	Vehicle	OCI-P5x (serous)	2	77.3	active
60	CHD7	SID405528106	Vehicle	OCI-P5x (serous)	3	67.5	active
